For part of these data: Results from cells or extracts need not show a direct contact. For part of these data: A negative result means that nothing was seen under these conditions. For part of these data: For at least one entry, the source does not settle the construct or the ends of the probe. For part of these data: The direction of at least one scale is not stated here.

Sequences of proteins named here, by UniProt entry; tags and fusion partners are left off. Residues count along the entry.
UniProt P16109, 42-771: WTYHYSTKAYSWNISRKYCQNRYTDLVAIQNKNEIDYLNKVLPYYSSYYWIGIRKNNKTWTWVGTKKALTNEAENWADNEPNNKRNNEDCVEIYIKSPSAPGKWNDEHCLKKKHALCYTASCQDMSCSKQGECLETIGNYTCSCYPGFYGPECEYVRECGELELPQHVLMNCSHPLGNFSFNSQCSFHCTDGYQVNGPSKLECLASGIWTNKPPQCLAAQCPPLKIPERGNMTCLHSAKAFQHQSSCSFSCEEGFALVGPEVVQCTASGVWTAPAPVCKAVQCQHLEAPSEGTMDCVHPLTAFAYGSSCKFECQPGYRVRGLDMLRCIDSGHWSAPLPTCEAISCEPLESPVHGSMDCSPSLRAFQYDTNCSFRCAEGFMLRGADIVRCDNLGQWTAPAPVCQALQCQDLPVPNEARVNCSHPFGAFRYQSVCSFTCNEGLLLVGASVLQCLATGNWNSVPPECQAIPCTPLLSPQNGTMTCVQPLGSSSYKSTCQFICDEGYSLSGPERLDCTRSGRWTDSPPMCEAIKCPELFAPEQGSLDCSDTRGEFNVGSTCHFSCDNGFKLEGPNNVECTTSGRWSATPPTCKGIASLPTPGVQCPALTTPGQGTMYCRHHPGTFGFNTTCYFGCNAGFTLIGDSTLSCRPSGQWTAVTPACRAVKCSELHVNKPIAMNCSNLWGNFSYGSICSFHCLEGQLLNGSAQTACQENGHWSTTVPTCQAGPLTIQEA
UniProt P16109, 42-830: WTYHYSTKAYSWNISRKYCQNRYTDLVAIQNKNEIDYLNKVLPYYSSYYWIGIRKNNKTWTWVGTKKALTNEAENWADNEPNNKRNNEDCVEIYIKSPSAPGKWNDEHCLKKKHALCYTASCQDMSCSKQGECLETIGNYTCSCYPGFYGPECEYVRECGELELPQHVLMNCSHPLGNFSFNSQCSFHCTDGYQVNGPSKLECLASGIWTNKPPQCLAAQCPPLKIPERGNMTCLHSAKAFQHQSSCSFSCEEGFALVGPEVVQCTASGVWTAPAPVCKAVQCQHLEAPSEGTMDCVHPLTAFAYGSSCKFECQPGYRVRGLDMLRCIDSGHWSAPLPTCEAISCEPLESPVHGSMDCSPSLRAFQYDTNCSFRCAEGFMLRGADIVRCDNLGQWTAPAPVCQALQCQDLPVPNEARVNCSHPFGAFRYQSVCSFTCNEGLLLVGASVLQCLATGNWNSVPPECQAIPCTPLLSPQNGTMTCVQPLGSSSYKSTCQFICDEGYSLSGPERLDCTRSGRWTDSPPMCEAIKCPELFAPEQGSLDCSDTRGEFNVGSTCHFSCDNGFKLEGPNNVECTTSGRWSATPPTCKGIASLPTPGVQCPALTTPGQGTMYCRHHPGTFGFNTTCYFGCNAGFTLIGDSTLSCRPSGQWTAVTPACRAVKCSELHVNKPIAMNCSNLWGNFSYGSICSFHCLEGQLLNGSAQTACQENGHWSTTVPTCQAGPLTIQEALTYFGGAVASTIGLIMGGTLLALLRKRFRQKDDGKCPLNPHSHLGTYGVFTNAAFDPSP

Holding throughout (assay): binding assay
Series [1] has as its target L-selectin on neutrophils/leukocytes (Homo sapiens) (UniProt P14151). As to conditions: protein on the cell surface, single-stranded DNA.
In the next series the target is L-selectin (UniProt P14151). The following applies: 3' inverted T; static adhesion of aptamer-MSC to coated surface, reference value; also under flow; controls with 5 mM EDTA or free-aptamer blocking; purified recombinant protein; protein details: coated on surface; label: 5'-biotin; single-stranded DNA.
Series [2] concerns PDGF-GFP fusion secreted by MDA-MB-231 cells. The following applies: sensor-MSCs in microwells, fluorescence decline correlates with number of PDGF-producing cells; no significant signal with native MDA-MB-231; protein in cells; protein details: GFP fusion; folded or branched DNA.
The next series has as its target P-selectin (UniProt P16109). As to conditions: 2'-F on C and U; static adhesion of aptamer-MSC, reference value; tethering under flow up to 0.75 dyn/cm2; 5 mM EDTA and free-aptamer blocking run as controls; purified recombinant protein; protein details: P-selectin-Fc, coated on surface; label: 5'-biotin.
Series [3] concerns the target P-selectin on histamine-activated HUVEC (Homo sapiens) (UniProt P16109). The following applies: 2'-F on C and U; about 60% of MSC retained on HUVEC up to 5 dyn/cm2; reduced when HUVEC pre-blocked with aptamer; protein on the cell surface; label: 5'-biotin.

“GATGTAGGGACAGTCAAATGGAGTGGTTCAACCGCCCATCTTCAACAAT [scrambled sequence control DNA]”: the binding result in series [1] (minimal MSC/neutrophil interaction, label: 3'-biotin, variant of L-selectin aptamer) is reported as “no binding”.
For “TAGCCAAGGTAACCAGTACAAGGTGCTAAACGTAATGGCTTCGGCTTAC [L-selectin aptamer]”, the binding signal in the series with L-selectin was found to be 100%. Also, in series [1] (3' inverted T, L-Aptamer-MSC binds neutrophils/leukocytes, effective under flow at 0.5 dyn/cm2 or lower, blocked by free L-selectin aptamer, label: 5'-biotin), the binding result is reported as “binds”.
“AAGGCTACGGCACGTAGAGCATCACCATGATCCTGTGTGGTCTGTGTCG / CGAACGACGACATAGACCACA [PDGF quench sensor Cy5/Iowa Black RQ]”: in series [2], the binding result is listed as “binds”.
On to “CUCAACGAGCCAGGAACAUCGACGUCAGCAAACGCGAG [P-selectin aptamer]”, for which the binding signal with P-selectin was determined as 100%. Also, the binding result in series [3] was “binds”.

Source of the values: patent US20130040837, “APTAMER CELL COMPOSITIONS” (BRIGHAM AND WOMEN'S HOSPITAL, INC., published 2013).
